The other results are listed elsewhere or left out. Repeats are few or missing, and single values can be far off.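 The apoptosis fraction was the count of cleaved-PARP antibody-stained nuclei relative to all DNA-stained nuclei, imaged in 1,536-well plates. Screening doses were set so most cells survived, and baseline and induced cleaved-PARP levels vary greatly across cell lines.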

The values that follow come from the supplement of paper PMC4604168 (melanoma cell lines).

Among the test systems are MZ2-MEL; MeWo; RPMI7951; RVH-421; SkMel28; SkMel2; SkMel30; UACC62.
Assay in all cases: cleaved PARP positive nuclei fraction relative to DMSO control; melanoma cells; higher = more apoptosis
Holding throughout (details): library dose: low library concentration; 72 h

Regarding `Cn1sc(=O)n(Cc2ccccc2)c1=O` + CC(=O)O[C@@]12CO[C@@H]1C[C@H](O)[C@@]1(C)C(=O)[C@H](O)C3=C(C)[C@@H](OC(=O)[C@H](O)[C@@H](NC(=O)OC(C)(C)C)c4ccccc4)C[C@@](O)([C@@H](OC(=O)c4ccccc4)[C@H]21)C3(C)C [Docetaxel] (first compound 0.4 µM, partner dose 0.0001 µM), the “cleaved PARP positive nuclei fraction” value in the assay on MZ2-MEL is 728%; in the assay with MeWo it was 449%; in the assay with RPMI7951, 63.3%; with RVH-421 it was 171%; with SkMel28, 198%; with SkMel2, 498%. Also, the “cleaved PARP positive nuclei fraction” value stood at 697% in the assay with SkMel30 and 407% in the assay on UACC62.
On to `CCN(CC)CCNC(=O)c1c(C)[nH]c(/C=C2\C(=O)Nc3ccc(F)cc32)c1C` [sunitinib] + NC1(c2ccc(-c3nc4ccn5c(=O)[nH]nc5c4cc3-c3ccccc3)cc2)CCC1 [MK2206] (first compound 0.4 µM, partner dose 0.4 µM), for which the “cleaved PARP positive nuclei fraction” value came to 220% in the assay with MZ2-MEL; 75% with MeWo; 211% in the assay with RPMI7951; 28.4% in the assay with RVH-421; 89.6% in the assay with SkMel28; 83% with SkMel2. For the same compound, the “cleaved PARP positive nuclei fraction” value with SkMel30 was found to be 52%; with UACC62, 273%.
Take `NC1(c2ccc(-c3nc4ccn5c(=O)[nH]nc5c4cc3-c3ccccc3)cc2)CCC1` + CNC(=O)c1cc(Oc2ccc(NC(=O)Nc3ccc(Cl)c(C(F)(F)F)c3)cc2)ccn1 [sorafenib] (first compound 0.4 µM, partner dose 0.4 µM): the “cleaved PARP positive nuclei fraction” value was 70.3% in the assay with MZ2-MEL; 143% in the assay on MeWo; 33.7% in the assay on RPMI7951; 82% in the assay with RVH-421; 137% in the assay on SkMel28; 49% in the assay on SkMel2. In addition, the “cleaved PARP positive nuclei fraction” value with SkMel30 amounted to 64.9%; in the assay with UACC62 it was 148%.
For `CC1(C)CCC(c2ccc(Cl)cc2)=C(CN2CCN(c3ccc(C(=O)NS(=O)(=O)c4ccc(N[C@H](CCN5CCOCC5)CSc5ccccc5)c(S(=O)(=O)C(F)(F)F)c4)cc3)CC2)C1` + Cc1cc(Nc2cc(N3CCN(C)CC3)nc(/C=C/c3ccccc3)n2)n[nH]1 [ENMD2076] (first compound 0.4 µM, partner dose 0.04 µM), the “cleaved PARP positive nuclei fraction” value with MZ2-MEL was 196%; with MeWo, 193%; in the assay with RPMI7951, 73.1%; with RVH-421 it was 193%; in the assay on SkMel28, 161%; with SkMel2 it was 145%. The “cleaved PARP positive nuclei fraction” value in the assay on SkMel30 was determined as 198%; with UACC62, 133%.
Take `CS(=O)(=O)c1ccc(C(=O)Nc2ccc(Cl)c(-c3ccccn3)c2)c(Cl)c1` [vismodegib] + CN1CCN(c2ccc3nc(-c4c(N)c5c(F)cccc5[nH]c4=O)[nH]c3c2)CC1 [Dovitinib] (first compound 1 µM, partner dose 0.1 µM): the “cleaved PARP positive nuclei fraction” value in the assay with MZ2-MEL worked out at 173%; in the assay on MeWo, 134%; in the assay on RPMI7951, 100%; in the assay on RVH-421 it was 45.9%; in the assay with SkMel28, 142%; with SkMel2, 69.6%. The “cleaved PARP positive nuclei fraction” value with SkMel30 stood at 64%; in the assay with UACC62, 124%.
For `Cn1cnc2c(F)c(Nc3ccc(Br)cc3Cl)c(C(=O)NOCCO)cc21` [selumetinib] + C[C@]1(c2nc3c(C(N)=O)cccc3[nH]2)CCCN1 [Veliparib] (first compound 0.015 µM, partner dose 1.4 µM), the “cleaved PARP positive nuclei fraction” value in the assay on MZ2-MEL is 67.4%; in the assay with MeWo it was 88.9%; in the assay with RPMI7951, 45.8%; in the assay on RVH-421 it was 102%; in the assay on SkMel28 it was 116%; with SkMel2, 56.1%. The “cleaved PARP positive nuclei fraction” value in the assay with SkMel30 was 118%; in the assay on UACC62, 267%.
Take `CC(=O)O[C@@]12CO[C@@H]1C[C@H](O)[C@@]1(C)C(=O)[C@H](O)C3=C(C)[C@@H](OC(=O)[C@H](O)[C@@H](NC(=O)OC(C)(C)C)c4ccccc4)C[C@@](O)([C@@H](OC(=O)c4ccccc4)[C@H]21)C3(C)C` [Docetaxel] + C=C(c1ccc(C(=O)O)cc1)c1cc2c(cc1C)C(C)(C)CCC2(C)C [Bexarotene] (first compound 0.0001 µM, partner dose 2 µM): the “cleaved PARP positive nuclei fraction” value is 819% in the assay on MZ2-MEL; 449% with MeWo; 155% in the assay with RPMI7951; 78.9% with RVH-421; 175% in the assay with SkMel28; 1130% in the assay on SkMel2. The figures for the “cleaved PARP positive nuclei fraction” value in the assay on SkMel30 and in the assay on UACC62 were 376% and 332%, respectively.
Consider `C[C@@H](N)c1ccc(C(=O)Nc2ccnc3[nH]ccc23)cc1` + Cc1cc(Nc2cc(N3CCN(C)CC3)nc(/C=C/c3ccccc3)n2)n[nH]1 [ENMD2076] (first compound 0.4 µM, partner dose 0.04 µM), for which the “cleaved PARP positive nuclei fraction” value in the assay with MZ2-MEL stood at 145%; in the assay with MeWo it was 186%; with RPMI7951, 95.2%; in the assay with RVH-421, 47.8%; in the assay on SkMel28, 37.8%; in the assay with SkMel2, 101%. Also, the “cleaved PARP positive nuclei fraction” value with SkMel30 was 60.7%; in the assay with UACC62, 238%.
As for `CCCCCCCCc1ccc(CCC(N)(CO)CO)cc1` [fingolimod] + Cc1cc(Nc2cc(N3CCN(C)CC3)nc(/C=C/c3ccccc3)n2)n[nH]1 [ENMD2076] (first compound 2 µM, partner dose 0.04 µM), the “cleaved PARP positive nuclei fraction” value with MZ2-MEL worked out at 121%; in the assay on MeWo it was 67.8%; with RPMI7951, 166%; in the assay with RVH-421, 184%; in the assay on SkMel28 it was 212%; with SkMel2 it was 43.4%. Moreover, the figures for the “cleaved PARP positive nuclei fraction” value in the assay on SkMel30 and with UACC62 were 417% and 247%, respectively.
Turning to `C[C@@H](N)c1ccc(C(=O)Nc2ccnc3[nH]ccc23)cc1` + Nc1ncn([C@H]2C[C@H](O)[C@@H](CO)O2)c(=O)n1 [decitabine] (first compound 0.4 µM, partner dose 0.1 µM), the “cleaved PARP positive nuclei fraction” value in the assay on MZ2-MEL turned out to be 148%; in the assay on MeWo, 247%; in the assay on RPMI7951, 222%; in the assay on RVH-421, 202%; in the assay on SkMel28, 67.1%; in the assay on SkMel2 it was 103%. The “cleaved PARP positive nuclei fraction” value turned out to be 154% in the assay with SkMel30 and 361% in the assay with UACC62.
On to `Cn1cnc2c(F)c(Nc3ccc(Br)cc3Cl)c(C(=O)NOCCO)cc21` [selumetinib] + Clc1ccc(Nc2nnc(Cc3ccncc3)c3ccccc23)cc1 [vatalanib] (first compound 0.015 µM, partner dose 2 µM), for which the “cleaved PARP positive nuclei fraction” value came to 351% in the assay on MZ2-MEL; 204% with MeWo; 81% with RPMI7951; 145% with RVH-421; 42.6% with SkMel28; 132% in the assay with SkMel2. The “cleaved PARP positive nuclei fraction” value stood at 46.5% in the assay on SkMel30 and 229% in the assay with UACC62.
On to `CC(=O)O[C@@]12CO[C@@H]1C[C@H](O)[C@@]1(C)C(=O)[C@H](O)C3=C(C)[C@@H](OC(=O)[C@H](O)[C@@H](NC(=O)OC(C)(C)C)c4ccccc4)C[C@@](O)([C@@H](OC(=O)c4ccccc4)[C@H]21)C3(C)C` [Docetaxel] + O=C(O)[C@@H]1[O][Sb](=[O])([O][Sb]2(=[O])[O][C@H]([C@H](O)CO)[C@H](O)[C@H](C(=O)O)[O]2)[O][C@H]([C@H](O)CO)[C@@H]1O [stibogluconate] (first compound 0.0001 µM, partner dose 2 µM), for which the “cleaved PARP positive nuclei fraction” value with MZ2-MEL is 679%; in the assay on MeWo it was 718%; in the assay with RPMI7951, 266%; with RVH-421, 121%; with SkMel28, 247%; with SkMel2 it was 650%. Besides, the “cleaved PARP positive nuclei fraction” value was determined as 130% in the assay on SkMel30 and 435% with UACC62.
As to `CC1(C)CCC(c2ccc(Cl)cc2)=C(CN2CCN(c3ccc(C(=O)NS(=O)(=O)c4ccc(N[C@H](CCN5CCOCC5)CSc5ccccc5)c(S(=O)(=O)C(F)(F)F)c4)cc3)CC2)C1` + CS(=O)(=O)c1ccc(C(=O)Nc2ccc(Cl)c(-c3ccccn3)c2)c(Cl)c1 [vismodegib] (first compound 0.4 µM, partner dose 1 µM), the “cleaved PARP positive nuclei fraction” value in the assay with MZ2-MEL turned out to be 125%; in the assay on MeWo, 467%; in the assay on RPMI7951 it was 229%; in the assay with RVH-421, 164%; with SkMel28, 31.6%; with SkMel2, 122%. Further, the “cleaved PARP positive nuclei fraction” value is 51.6% in the assay on SkMel30 and 111% in the assay with UACC62.
Take `CCN(CC)CCNC(=O)c1c(C)[nH]c(/C=C2\C(=O)Nc3ccc(F)cc32)c1C` [sunitinib] + Cc1cc(Nc2cc(N3CCN(C)CC3)nc(/C=C/c3ccccc3)n2)n[nH]1 [ENMD2076] (first compound 0.4 µM, partner dose 0.04 µM): the “cleaved PARP positive nuclei fraction” value in the assay with MZ2-MEL stood at 142%; in the assay on MeWo, 33.7%; with RPMI7951, 141%; in the assay on RVH-421, 120%; in the assay on SkMel28 it was 69.5%; in the assay with SkMel2, 24.3%. For the same compound, the “cleaved PARP positive nuclei fraction” value with SkMel30 came out at 73.6%; in the assay with UACC62, 121%.
For `C[C@@H](N)c1ccc(C(=O)Nc2ccnc3[nH]ccc23)cc1` + Clc1ccc(Nc2nnc(Cc3ccncc3)c3ccccc23)cc1 [vatalanib] (first compound 0.4 µM, partner dose 2 µM), the “cleaved PARP positive nuclei fraction” value with MZ2-MEL was 157%; in the assay on MeWo, 300%; in the assay on RPMI7951 it was 122%; with RVH-421, 279%; with SkMel28, 85.6%; in the assay with SkMel2, 102%. For the same compound, the “cleaved PARP positive nuclei fraction” value in the assay with SkMel30 is 43.9%; in the assay on UACC62 it was 98.8%.
As for `C[C@@H](N)c1ccc(C(=O)Nc2ccnc3[nH]ccc23)cc1` + Cc1nc(Nc2ncc(C(=O)Nc3c(C)cccc3Cl)s2)cc(N2CCN(CCO)CC2)n1 [dasatanib] (first compound 0.4 µM, partner dose 0.004 µM), the “cleaved PARP positive nuclei fraction” value in the assay on MZ2-MEL was 279%; in the assay with MeWo it was 223%; in the assay on RPMI7951 it was 60.6%; with RVH-421 it was 77.9%; in the assay on SkMel28, 131%; in the assay with SkMel2, 159%. In addition, the “cleaved PARP positive nuclei fraction” value was 26.1% in the assay on SkMel30 and 110% in the assay on UACC62.
